This assay addresses T1, Death Receptor 3 (DR3) natively expressed on human TF-1 cells (human) (UniProt Q93038).
T1 sequence (looked up): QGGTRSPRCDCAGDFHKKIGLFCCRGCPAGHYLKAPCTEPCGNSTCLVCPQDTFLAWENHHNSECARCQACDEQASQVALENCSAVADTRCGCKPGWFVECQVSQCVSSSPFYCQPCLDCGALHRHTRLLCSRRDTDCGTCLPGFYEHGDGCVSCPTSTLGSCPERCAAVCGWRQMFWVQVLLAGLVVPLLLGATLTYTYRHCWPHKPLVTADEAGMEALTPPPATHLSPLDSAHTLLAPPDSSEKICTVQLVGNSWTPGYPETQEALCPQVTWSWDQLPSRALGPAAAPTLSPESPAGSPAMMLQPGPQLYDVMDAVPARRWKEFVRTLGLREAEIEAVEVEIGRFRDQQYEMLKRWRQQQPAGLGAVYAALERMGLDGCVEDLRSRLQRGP
The experiment in a line: TF-1 cell caspase activation assay.

Results are given in words; binding and its absence hold for the method and conditions named. Some entries that bind do so weakly or less than the wild type.

B1: recombinant human TL1A protein (tumor necrosis factor-like cytokine 1A) (ligand, UniProt O95150 72-251, looked up)
chain: LKGQEFAPSHQQVYAPLRADGDKPRAHLTVVRQTPTQHFKNQFPALHWEHELGLAFTKNRMNYTNKFLLIPESGDYFIYSQVTFRGMTSECSEIRQAGRPNKPDSITVVITKVTDSYPEPTQLLMGTKSVCEVGSNWFQPIYLGAMFSLQEGDKLMVNVSDISLVDYTKEDKTFFGAFLL
Take B1: the binding entry is given as “binds”.

B2: recombinant cynomolgus monkey TL1A protein (ligand)
chain: LKGQEFAPSHQQVYAPLRADGDKPRAHLTVVRQTPTQHLKNQFPALHWEHELGLAFTKNRMNYTNKFLLIPESGDYFVYSQVTFRGMTSECSEIRQAGRPNKPDSITVVITKVTDSYPEPTQLLMGTKSVCEVGSNWFQPIYLGAMFSLQEGDKLMVNVSDISLVDYTKEDKTFFGAFLL
Take B2: the binding entry was “binds”.
